These are yes or no findings as the source states them, for the method shown. Some binding calls cover weakened binding; strength is not graded here.

The test has as its target human TCRβV 6-5 on T cells (human). As to the kind of experiment: flow cytometry on human CD3+ T cells, BHM1709 followed by a fluorochrome-conjugated secondary antibody.

B1: BHM1709 (humanized) (antibody, V domains shown)
VH: QVQLVQSGAEVKKPGSSVKVSCKASGYSFTTYYIHWVRQAPGQGLEWMGWFFPGSGNIKYNEKFKGRVTITADTSTSTAYMELSSLRSEDTAVYYCAGSYYSYDVLDYWGQGTTVTVSS
VL: DIQMTQSPSFLSASVGDRVTITCKASQNVGINVVWHQQKPGKAPKALIYSSSHRYSGVPSRFSGSGSGTEFTLTISSLQPEDFATYFCQQFKSYPLTFGQGTKLEIK
For B1, the binding result is reported as “binds”.

Source of the values: patent US20220064255A1.
